{
  "source": "patent US20100093603A1",
  "about": "“USE OF ORGANIC COMPOUNDS” (priority 2008, published 2010)",
  "key": {"[1]": {"test_system": "Cardiac interstitial fibrosis", "test": "Cardiac interstitial fibrosis by Masson's trichrome staining, graded on a scale of 0-4", "assay_type": "in vivo, Sprague Dawley rats", "settings": "diabetic rats; summary statement", "experimental": "Diabetes is induced by a single injection of streptozotocin (STZ, 65 mg/kg body weight, IP) dissolved in 0.1 M sodium citrate buffered saline (pH 4.5), in adult male Sprague Dawley rats (250-300 g). Control animals receive buffered saline alone. Diabetes is confirmed by sustained blood glucose levels >15 mmol/L, as determined 48 h after STZ injection and on alternate days thereafter. […] After 7 days, animals are weighed and anesthetized using ketamine/xylazine (50/5 mg/kg). Hearts are isolated and weighed before perfusion, the latter using the Langendorff methodology.\nCardiac interstitial fibrosis is determined by Masson's trichrome staining on 5 μm paraffin-embedded sections. The extent and degree of fibrosis is graded on a scale of 0-4. Grade 0 signifies no apparent collagen fiber proliferation except for small islets of fibrous tissue around the capillaries, as well as an intercellular single layer of collagenous tissue, as in normal myocardium. Focal and minimal fibrosis is graded as 1, mild patchy fibrosis as grade 2, moderate diffuse fibrosis as grade 3 and the most prominent fibrosis, covering major area of the specimen, is classified as 4. A minimum of three sections per heart, with five fields per section, and three animals per experimental group, are analyzed and results presented as an average grade. […]"}, "[2]": {"test_system": "Superoxide production in the hearts", "test": "Reactive oxygen species detection in the heart by dihydroethidium (DHE) staining", "assay_type": "in vivo, Sprague Dawley rats", "settings": "STZ-diabetic rats, DHE staining of heart sections"}},
  "note": "At least one compound was matched to its structure with a doubt left.",
  "data": [
    {"smiles": "CCOc1nc2cccc(C(=O)O)c2n1Cc1ccc(-c2ccccc2-c2nnn[nH]2)cc1", "note": "[candesartan]", "values": [
      {"measurement": "diabetes-induced cardiac fibrosis (result in words)", "setting": "[1]", "value": "partially inhibited"},
      {"measurement": "superoxide production / oxidative stress (result in words)", "setting": "[2]", "value": "reduces oxidative stress"}
    ]}
  ]
}
